# Assay results reported in PubChem BioAssay AID445 (National Center for Advancing Translational Sciences (NCATS), 2006).
# Some of the results follow. The main result of the screen is listed elsewhere. These columns were measured beside it and carry no call. Most of these compounds were active or inconclusive in the main read-out, so they are no random draw. Potencies come from curve fits of mixed quality, noted in brackets.
# Test: IkB Signaling
# Settings: ABC-DLBCL IkBa-CBG/CBR dual luciferase ratio (green luciferase fused to IkBa over red control in OCI-Ly3 lymphoma cells), 4 h
# Summary of the method: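 Luminescence ratio of IκBα-fused green versus native red beetle luciferase in OCI-Ly3 cells, 4 h post-doxycycline with compound; red signal alone, scaled from basal (0%) to zero light (-100%), flagged nonspecific or cytotoxic effects.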
# [1] = measured here: control luc red channel unless noted
# [2] = measured here: IkB-luc green channel
# [3] = measured here: control luc red channel
structure (smiles),measurement,setting,value
CCOC(=O)c1ccccc1NC(=O)CSc1nnc(COc2ccccc2)n1CC,AC50,[1],"25.1 µM [falling, partial curve]"
CN1CCN(c2cc3c(c4c2[nH]c2ccccc24)C(=O)CC(C)(C)C3)CC1,AC50,[1],"25.1 µM [falling, partial curve]"
COc1ccc(OC)c(CCNC(=O)c2c(C)oc3ncn(C)c(=O)c23)c1,AC50,[1],"0.2 µM [falling, full curve, poor fit]"
CCc1cccc(NC(=O)CCc2nc(-c3cccs3)no2)c1,AC50,[1],"25.1 µM [falling, single point]"
CC1CCc2c(C(=O)Oc3cccc(-n4cnnn4)c3)csc2C1 (centres undefined),AC50,[1],"10 µM [falling, partial curve]"
CCOc1ccc(CN2CCN(c3ncnc4sc5c(c34)CC(C)CC5)CC2)cc1 (centres undefined),AC50,[1],"39.8 µM [falling, single point]"
COc1ccccc1C(=O)Nc1nnc(S(=O)(=O)N(C)c2ccc(Cl)cc2)s1,AC50,[1],"25.1 µM [falling, single point]"
Cc1nc2sc(C(c3cccs3)N3CCOCC3)c(O)n2n1 (centres undefined),AC50,[2],"10 µM [rising, partial curve]"
same,AC50,[3],"3.16 µM [falling, full curve]"
COc1ccc(Cl)cc1NC(=O)c1ccc2c(c1)CCCN2S(C)(=O)=O,AC50,[1],"25.1 µM [falling, partial curve]"
O=c1cnc2cncnc2n1Cc1ccccc1Cl,AC50,[1],"6.31 µM [rising, single point] [measured here: IkB-luc green channel]"
O=C(NCCSc1c(-c2ccccc2)[nH]c2ccccc12)c1ccc(S(=O)(=O)N2CCOCC2)cc1,AC50,[1],"3.16 µM [falling, full curve]"
Cc1ccccc1OCc1ccc(-c2nc(C#N)c(N3CCC(C(N)=O)CC3)o2)o1,AC50,[1],"5.01 µM [rising, partial curve]"
CC(=O)Nc1ccc(S(=O)(=O)NCCS(=O)(=O)N2CCN(c3ccccc3F)CC2)cc1,AC50,[1],"25.1 µM [falling, single point]"
CCOc1ccc2c(c1)c(=O)c(S(=O)(=O)c1ccc(Cl)cc1)cn2Cc1ccccc1C,AC50,[1],"12.6 µM [falling, partial curve]"
COc1ccc(CCNc2oc(COc3ccccc3F)nc2C#N)cc1OC,AC50,[2],"25.1 µM [falling, partial curve]"
same,AC50,[3],"25.1 µM [falling, partial curve]"
N#Cc1nc(COc2cccc(Cl)c2)oc1NCc1ccncc1,AC50,[1],"12.6 µM [falling, partial curve]"
Cc1ccccc1-c1nc(SCC(=O)N(C)c2ccccc2)c2c(=O)n(C)c(=O)n(C)c2n1,AC50,[1],"0.02 µM [falling, full curve, poor fit]"
COc1cc(NC(=O)CC2C(=O)N(c3cccc(C)c3)C(=O)N2Cc2cccs2)cc(OC)c1 (centres undefined),AC50,[1],"20 µM [falling, partial curve]"
Cc1cc(C)c(S(=O)(=O)NCCc2csc3nc(-c4ccc(Cl)cc4)nn23)c(C)c1,AC50,[1],"25.1 µM [falling, partial curve]"
O=c1c2c3c(sc2n(Cc2ccc(F)cc2Cl)c(=O)n1-c1ccc(Cl)cc1)CCC3,AC50,[1],"0.316 µM [rising, full curve]"
CC(=O)c1ccc(NC(=O)Cn2nc(C(F)(F)F)c3c2CCCC3)cc1,AC50,[1],"15.8 µM [falling, partial curve]"
CCSc1nn(CC(=O)Nc2cccc(Cl)c2)c(N)c1S(=O)(=O)c1ccc(OC)cc1,AC50,[1],"25.1 µM [falling, partial curve]"
COc1ccc(C)cc1-n1nnnc1SCC(=O)N1CCC(C(=O)Nc2nccs2)CC1,AC50,[1],"12.6 µM [falling, partial curve]"
COc1ccc(-c2nc(SCC(=O)Nc3ccc4c(c3)OCCO4)c(-c3ccccc3)[nH]2)cc1,AC50,[1],"6.31 µM [falling, partial curve]"
CCc1ccc(NC(=O)Cn2c(=O)n(-c3cc(C)cc(C)c3)c(=O)c3oc4ccccc4c32)cc1,AC50,[1],"12.6 µM [falling, partial curve]"
Cc1ccc(-n2nc3c(=O)n(CCCC(=O)NC(C)c4ccccc4)nc(C)c3c2C)cc1 (centres undefined),AC50,[1],"15.8 µM [falling, partial curve]"
Cc1ccc2oc(C(=O)Nc3sc4c(c3C(=O)NCc3cccnc3)CCCC4)cc(=O)c2c1,AC50,[1],"15.8 µM [rising, partial curve]"
CCCNC(=O)c1cnc2c(-c3ccc(OCC)c(OCC)c3)c(C)nn2c1-c1ccccc1,AC50,[1],"15.8 µM [falling, partial curve]"
CCOC(=O)c1cc(C)n(CC2CCC(C(=O)Nc3cc(OC)cc(OC)c3)CC2)c1C (centres undefined),AC50,[1],"6.31 µM [falling, full curve]"
COc1cc(NC(=O)CC(c2cccs2)N2Cc3ccccc3C2=O)cc(OC)c1OC (centres undefined),AC50,[1],"31.6 µM [falling, single point]"
O=C1[C@H]2[C@@H](C(=O)N1c1cc(Cl)cc(Cl)c1)[C@]1(C(=O)Nc3ccccc31)N1CCC[C@@H]21,AC50,[1],"10 µM [falling, partial curve]"
COc1ccc(C(=O)N2CCSC2=S)cc1OC,AC50,[1],"25.1 µM [falling, partial curve]"
CC(CC(=O)Nc1ccc(F)cc1)S(=O)(=O)c1cc2c3c(c1)CCN3C(=O)CC2 (centres undefined),AC50,[1],"25.1 µM [falling, partial curve]"
C[C@@H](/C=C\c1cccc(Oc2ccc(F)cc2)c1)N(O)C(N)=O,AC50,[1],"39.8 µM [falling, single point]"
Cc1cccc(N2CCN(c3nnnn3-c3ccccc3)CC2C)c1 (centres undefined),AC50,[1],"39.8 µM [falling, single point]"
CNc1ccc(-c2nc(-c3ccncc3)no2)cc1[N+](=O)[O-],AC50,[1],"39.8 µM [rising, partial curve]"
CCOC(=O)N1CCN(C(=O)C(C)N(c2ccc(Oc3ccccc3)cc2)S(C)(=O)=O)CC1 (centres undefined),AC50,[1],"10 µM [falling, partial curve]"
Cc1ccc(CNc2cc(C)nc3nc(-c4ccc(C)cc4)nn23)cc1,AC50,[1],"7.94 µM [falling, single point]"
CCc1ccc(O)c(N=Cc2ccccc2O)c1,AC50,[1],"20 µM [rising, partial curve] [measured here: IkB-luc green channel]"
Cc1ccc(C)c(NC(=O)c2nc(S(=O)(=O)Cc3ccc(F)cc3)ncc2Cl)c1,AC50,[1],"7.94 µM [falling, full curve]"
Cc1ccsc1C(=O)OCc1csc(-c2ccccc2)n1,AC50,[1],"6.31 µM [falling, partial curve]"
CCc1ccccc1S(=O)(=O)Cc1ccc(C(=O)NCCc2ccc(Cl)cc2)o1,AC50,[1],"10 µM [falling, partial curve]"
COc1cccc(-c2cc(C(=O)NC3CCCC3)no2)c1,AC50,[1],"3.98 µM [falling, full curve]"
CC(C)CCNc1nc(Nc2ccccc2)c2cnn(C)c2n1,AC50,[1],"20 µM [falling, partial curve]"
O=C(Cc1ccc(Cl)cc1)NCCc1csc2nc(-c3ccccc3F)nn12,AC50,[1],"25.1 µM [falling, single point]"
Cc1cc(F)ccc1Nc1nc2ccc(Cl)cc2n2cnnc12,AC50,[1],"0.126 µM [rising, full curve]"
CCOC(=O)c1ccc(-n2c(CCC(=O)O)ccc2-c2ccccc2)cc1O,AC50,[1],"12.6 µM [falling, partial curve]"
C=CCn1c(=O)c(C(=O)Nc2ccccc2C(=O)OCC)c(O)c2ccccc21,AC50,[1],"0.251 µM [falling, full curve]"
Cc1c(NC(=O)c2cccs2)cccc1-c1nc2cc(Cl)ccc2o1,AC50,[1],"10 µM [falling, partial curve]"
CCOc1ccc(NC(=O)c2nc(S(=O)(=O)Cc3ccccc3F)ncc2Cl)cc1,AC50,[1],"6.31 µM [falling, full curve]"
COc1ccc(S(=O)(=O)n2nc(-c3ccco3)nc2NCc2ccc(C(C)C)cc2)cc1,AC50,[1],"3.16 µM [falling, partial curve]"
COc1ccc(S(=O)(=O)NCc2cccn2Cc2cc(C)ccc2C)cc1OC,AC50,[1],"20 µM [falling, partial curve]"
COc1ccc(-c2cc(-c3nc(-c4cc(OC)c(OC)c(OC)c4)no3)[nH]n2)c(OC)c1,AC50,[1],"3.98 µM [falling, full curve]"
Cn1cc(-c2nc3cncnc3n(-c3ccccc3)c2=O)c2ccccc21,AC50,[1],"3.16 µM [falling, partial curve]"
COc1ccc(CNC(=O)CCc2c(C)nc3cc(-c4ccc(OC)cc4OC)nn3c2C)cc1,AC50,[1],"0.501 µM [falling, full curve]"
Cc1cccc(NC(=O)Cn2c(=O)n(CC3CCC(C(=O)NCCc4ccccc4)CC3)c(=O)c3ccccc32)c1 (centres undefined),AC50,[1],"3.16 µM [falling, single point]"
CCOC(=O)c1cc(-c2ccc(F)cc2)n(CCC(=O)NC2CCC(C)CC2)c1C (centres undefined),AC50,[1],"12.6 µM [falling, single point]"
Cc1ccc(OCCn2c(C3CC(=O)N(Cc4ccc(F)cc4)C3)nc3ccccc32)c(C)c1 (centres undefined),AC50,[1],"15.8 µM [falling, partial curve]"
COc1cc(C)c(C(C)C)cc1S(=O)(=O)n1cnc(C)c1,AC50,[2],"3.16 µM [rising, full curve]"
same,AC50,[3],"0.794 µM [rising, full curve, poor fit]"
Cc1cccc(N2CCN(c3nc4ccccc4c4nnc(C)n34)CC2)c1C,AC50,[1],"39.8 µM [falling, single point]"
COc1ccc(CNC(=O)Cn2cccc2C(=O)c2ccccc2C)cc1,AC50,[1],"15.8 µM [falling, partial curve]"

# Copied from above for reference:
structure (smiles),measurement,setting,value
COc1ccccc1C(=O)Nc1nnc(S(=O)(=O)N(C)c2ccc(Cl)cc2)s1,AC50,[1],"25.1 µM [falling, single point]"
Cc1nc2sc(C(c3cccs3)N3CCOCC3)c(O)n2n1 (centres undefined),AC50,[2],"10 µM [rising, partial curve]"
same,AC50,[3],"3.16 µM [falling, full curve]"
COc1ccc(Cl)cc1NC(=O)c1ccc2c(c1)CCCN2S(C)(=O)=O,AC50,[1],"25.1 µM [falling, partial curve]"

# Two entries from above, reformatted.
structure (smiles) | measurement | setting | value
COc1ccc(-c2nc(SCC(=O)Nc3ccc4c(c3)OCCO4)c(-c3ccccc3)[nH]2)cc1 | AC50 | [1] | 6.31 µM [falling, partial curve]
CCc1ccc(NC(=O)Cn2c(=O)n(-c3cc(C)cc(C)c3)c(=O)c3oc4ccccc4c32)cc1 | AC50 | [1] | 12.6 µM [falling, partial curve]
